Values of other authors as cited in patent US11952334B2, “Cocrystals of ubiquinone and compositions comprising them” (CENTER FOR INTELLIGENT RESEARCH IN CRYSTAL ENGINEERING, S.L., priority 2018, dated 2024).

Settings: cited from earlier work

## COC1=C(OC)C(=O)C(C/C=C(\C)CC/C=C(\C)CC/C=C(\C)CC/C=C(\C)CC/C=C(\C)CC/C=C(\C)CC/C=C(\C)CC/C=C(\C)CC/C=C(\C)CCC=C(C)C)=C(C)C1=O [Compound P57, ubiquinone]
  Solubility in water (in words): very low solubility in water
